Test [1] deals with T1, ULBP1 (UniProt Q9BZM6).
T1 sequence: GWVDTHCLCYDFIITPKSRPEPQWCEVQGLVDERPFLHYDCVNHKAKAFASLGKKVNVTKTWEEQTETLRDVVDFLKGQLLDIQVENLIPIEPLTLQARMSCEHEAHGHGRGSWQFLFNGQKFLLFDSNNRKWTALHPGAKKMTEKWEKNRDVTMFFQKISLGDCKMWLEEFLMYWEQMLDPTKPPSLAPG
The test can be described thus: co-IP; 35S pulse-chase labelled U373 cells expressing ULBP1 and U21; Triton X-100 lysates (1% Triton X-100, 10 mM Tris-HCl pH 7.4, 150 mM NaCl); U21 or ULBP1 recovered, SDS-PAGE of the labelled proteins; with or without leupeptin and folimycin.

Test [2] has as its target human herpesvirus-7 (HHV-7) U21 gene product (human herpesvirus-7 (HHV-7)). The test is described as above.
For test [3] the target is unchanged. Nature of the test: co-IP.

These are yes or no findings as the source states them, for the method shown. Binding seen in cells or lysates may run through a third protein. For some of these results: Binding calls can cover weak binding; strength is not graded here. For some of these results: Sequences can lack the tags named with a protein.

On to “human herpesvirus-7 (HHV-7) U21 gene product”, for which the binding result in test [1] is reported as “no binding (only in Triton X-100 lysates)”.

B1: ULBP1 (protein, UniProt Q9BZM6 26-216)
chain: T1 sequence
Consider B1, for which the binding entry in test [2] is reported as “no binding (only in Triton X-100 lysates)”; in test [3], “binds”.

B2: HA-tagged ULBP1 (protein, UniProt Q9BZM6 26-216)
chain: T1 sequence
In the case of B2, in test [3], the binding result is recorded as “binds”.

The record behind these values is paper PMC3213103.
